Source: the supplement of paper PMC10849652
The list shows a part of the results.

The chains behind the UniProt entries cited, without tags or fusion partners. Where a name states a change or a piece, a line headed by the entry shows the natural chain unless it says otherwise.
UniProt P29218: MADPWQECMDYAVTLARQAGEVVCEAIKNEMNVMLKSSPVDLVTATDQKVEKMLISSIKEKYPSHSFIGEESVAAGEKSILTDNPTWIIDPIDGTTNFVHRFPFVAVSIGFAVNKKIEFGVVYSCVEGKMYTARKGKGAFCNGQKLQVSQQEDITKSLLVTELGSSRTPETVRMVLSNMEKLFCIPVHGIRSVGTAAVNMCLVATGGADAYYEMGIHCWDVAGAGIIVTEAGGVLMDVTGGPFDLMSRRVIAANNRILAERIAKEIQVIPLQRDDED
UniProt Q96LB3: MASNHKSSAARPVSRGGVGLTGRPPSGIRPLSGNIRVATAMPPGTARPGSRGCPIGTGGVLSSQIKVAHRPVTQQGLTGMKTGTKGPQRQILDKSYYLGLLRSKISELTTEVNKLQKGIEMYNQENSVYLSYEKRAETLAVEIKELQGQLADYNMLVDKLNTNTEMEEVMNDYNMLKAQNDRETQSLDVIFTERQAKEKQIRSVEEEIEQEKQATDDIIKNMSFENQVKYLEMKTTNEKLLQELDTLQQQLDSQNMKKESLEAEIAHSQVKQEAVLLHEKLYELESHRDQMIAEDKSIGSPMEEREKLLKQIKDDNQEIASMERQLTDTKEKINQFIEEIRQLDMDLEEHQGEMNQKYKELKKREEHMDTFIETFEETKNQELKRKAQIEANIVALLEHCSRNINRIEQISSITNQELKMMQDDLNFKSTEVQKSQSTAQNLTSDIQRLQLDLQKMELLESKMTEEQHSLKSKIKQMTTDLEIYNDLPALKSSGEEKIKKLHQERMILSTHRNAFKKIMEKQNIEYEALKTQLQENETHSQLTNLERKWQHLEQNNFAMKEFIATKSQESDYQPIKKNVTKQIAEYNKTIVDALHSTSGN
UniProt O00458: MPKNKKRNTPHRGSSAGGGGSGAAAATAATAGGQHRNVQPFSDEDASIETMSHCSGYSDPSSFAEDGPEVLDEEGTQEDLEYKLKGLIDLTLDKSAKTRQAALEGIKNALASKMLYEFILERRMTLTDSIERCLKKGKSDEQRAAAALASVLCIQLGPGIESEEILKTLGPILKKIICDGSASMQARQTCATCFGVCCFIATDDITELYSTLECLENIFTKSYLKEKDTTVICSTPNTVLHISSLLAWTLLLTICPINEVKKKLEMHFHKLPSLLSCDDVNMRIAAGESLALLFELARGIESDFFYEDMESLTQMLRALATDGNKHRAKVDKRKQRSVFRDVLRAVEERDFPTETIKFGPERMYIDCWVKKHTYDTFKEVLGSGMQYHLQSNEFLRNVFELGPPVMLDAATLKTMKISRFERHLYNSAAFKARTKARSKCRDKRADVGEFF
UniProt A1L0T0: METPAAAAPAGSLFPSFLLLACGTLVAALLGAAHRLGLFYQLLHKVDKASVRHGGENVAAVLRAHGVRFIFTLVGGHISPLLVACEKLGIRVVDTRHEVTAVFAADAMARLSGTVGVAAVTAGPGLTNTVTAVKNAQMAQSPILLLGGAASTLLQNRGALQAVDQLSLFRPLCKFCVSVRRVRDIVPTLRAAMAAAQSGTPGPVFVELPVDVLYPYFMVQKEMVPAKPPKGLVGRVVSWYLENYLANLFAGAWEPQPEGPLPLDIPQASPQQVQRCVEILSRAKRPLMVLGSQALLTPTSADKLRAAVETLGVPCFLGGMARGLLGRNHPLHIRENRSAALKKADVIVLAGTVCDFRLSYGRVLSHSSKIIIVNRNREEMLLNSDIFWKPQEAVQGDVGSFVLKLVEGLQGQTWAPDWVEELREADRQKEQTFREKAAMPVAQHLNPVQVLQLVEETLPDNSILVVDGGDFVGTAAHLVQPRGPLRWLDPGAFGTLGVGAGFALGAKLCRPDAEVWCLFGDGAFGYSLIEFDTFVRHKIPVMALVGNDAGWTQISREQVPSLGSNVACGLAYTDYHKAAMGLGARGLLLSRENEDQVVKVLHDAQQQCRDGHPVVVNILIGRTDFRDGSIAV
UniProt P17181: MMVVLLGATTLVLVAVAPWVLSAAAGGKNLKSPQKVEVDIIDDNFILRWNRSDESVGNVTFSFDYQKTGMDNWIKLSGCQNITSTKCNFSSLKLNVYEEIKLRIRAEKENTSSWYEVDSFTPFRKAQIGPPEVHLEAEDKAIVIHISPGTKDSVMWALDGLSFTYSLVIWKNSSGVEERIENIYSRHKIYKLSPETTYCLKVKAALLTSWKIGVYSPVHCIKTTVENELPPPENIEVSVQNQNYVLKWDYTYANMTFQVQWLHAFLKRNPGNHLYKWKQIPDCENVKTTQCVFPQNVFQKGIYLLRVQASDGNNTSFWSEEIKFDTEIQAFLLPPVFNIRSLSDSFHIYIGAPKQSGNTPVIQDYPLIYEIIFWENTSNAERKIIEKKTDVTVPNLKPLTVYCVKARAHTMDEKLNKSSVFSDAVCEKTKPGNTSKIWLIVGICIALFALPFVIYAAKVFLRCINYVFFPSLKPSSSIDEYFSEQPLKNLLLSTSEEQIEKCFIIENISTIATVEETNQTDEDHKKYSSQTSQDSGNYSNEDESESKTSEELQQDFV
UniProt Q13418: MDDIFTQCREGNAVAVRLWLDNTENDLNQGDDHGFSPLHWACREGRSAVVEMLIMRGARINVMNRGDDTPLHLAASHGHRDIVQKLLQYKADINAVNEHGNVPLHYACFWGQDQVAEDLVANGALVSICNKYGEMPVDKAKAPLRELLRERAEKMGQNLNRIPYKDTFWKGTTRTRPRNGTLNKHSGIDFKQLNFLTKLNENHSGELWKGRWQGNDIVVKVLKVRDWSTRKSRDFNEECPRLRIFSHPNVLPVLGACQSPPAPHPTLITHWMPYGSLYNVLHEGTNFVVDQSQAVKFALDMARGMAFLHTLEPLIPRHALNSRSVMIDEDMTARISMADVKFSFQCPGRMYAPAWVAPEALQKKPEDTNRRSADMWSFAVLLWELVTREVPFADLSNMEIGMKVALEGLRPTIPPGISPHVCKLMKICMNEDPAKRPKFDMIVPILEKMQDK
UniProt Q12894: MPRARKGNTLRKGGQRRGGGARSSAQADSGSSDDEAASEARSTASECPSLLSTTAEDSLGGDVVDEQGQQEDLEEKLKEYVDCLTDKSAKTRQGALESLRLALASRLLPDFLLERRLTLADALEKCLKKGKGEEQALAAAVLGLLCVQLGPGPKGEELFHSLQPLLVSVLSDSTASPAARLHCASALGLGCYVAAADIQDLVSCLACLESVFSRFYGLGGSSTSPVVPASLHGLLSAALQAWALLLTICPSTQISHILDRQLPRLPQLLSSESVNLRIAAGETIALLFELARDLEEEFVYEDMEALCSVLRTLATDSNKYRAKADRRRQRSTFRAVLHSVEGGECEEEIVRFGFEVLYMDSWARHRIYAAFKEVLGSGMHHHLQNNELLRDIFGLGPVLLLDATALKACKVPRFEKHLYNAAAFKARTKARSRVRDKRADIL
UniProt Q969R8: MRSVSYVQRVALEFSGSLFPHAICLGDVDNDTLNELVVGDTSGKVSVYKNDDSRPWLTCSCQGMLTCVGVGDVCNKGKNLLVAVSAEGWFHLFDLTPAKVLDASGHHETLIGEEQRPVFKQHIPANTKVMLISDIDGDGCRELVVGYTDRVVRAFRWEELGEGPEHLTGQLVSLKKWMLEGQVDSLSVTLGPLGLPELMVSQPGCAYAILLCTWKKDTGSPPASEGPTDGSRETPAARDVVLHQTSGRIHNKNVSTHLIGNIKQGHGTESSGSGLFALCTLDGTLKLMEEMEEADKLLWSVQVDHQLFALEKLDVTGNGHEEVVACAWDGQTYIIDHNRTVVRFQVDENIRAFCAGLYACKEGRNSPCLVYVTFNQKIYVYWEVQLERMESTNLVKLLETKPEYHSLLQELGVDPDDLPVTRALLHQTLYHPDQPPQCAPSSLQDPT
UniProt Q01628, whole entry, looked up: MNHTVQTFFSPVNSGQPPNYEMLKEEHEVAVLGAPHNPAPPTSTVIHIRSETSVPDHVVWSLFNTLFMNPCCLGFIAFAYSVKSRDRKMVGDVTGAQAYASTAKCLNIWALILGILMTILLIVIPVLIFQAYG
UniProt Q6UWB1, whole entry, looked up: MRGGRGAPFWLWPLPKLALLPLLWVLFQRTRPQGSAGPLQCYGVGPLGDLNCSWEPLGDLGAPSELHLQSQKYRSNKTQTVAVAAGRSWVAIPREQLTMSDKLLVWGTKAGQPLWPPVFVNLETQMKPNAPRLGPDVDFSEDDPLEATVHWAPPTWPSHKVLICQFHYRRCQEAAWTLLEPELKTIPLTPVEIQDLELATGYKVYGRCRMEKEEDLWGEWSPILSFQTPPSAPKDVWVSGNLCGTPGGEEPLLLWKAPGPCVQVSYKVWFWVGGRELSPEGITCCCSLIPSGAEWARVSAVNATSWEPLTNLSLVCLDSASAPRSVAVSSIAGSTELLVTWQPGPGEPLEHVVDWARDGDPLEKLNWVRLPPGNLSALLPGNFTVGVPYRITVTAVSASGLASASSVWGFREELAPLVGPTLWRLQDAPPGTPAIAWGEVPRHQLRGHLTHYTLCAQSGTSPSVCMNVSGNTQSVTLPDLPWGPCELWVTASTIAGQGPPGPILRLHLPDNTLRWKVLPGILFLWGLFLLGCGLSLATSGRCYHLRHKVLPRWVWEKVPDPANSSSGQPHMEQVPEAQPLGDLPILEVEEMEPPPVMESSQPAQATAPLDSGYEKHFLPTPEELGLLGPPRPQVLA
UniProt P18065: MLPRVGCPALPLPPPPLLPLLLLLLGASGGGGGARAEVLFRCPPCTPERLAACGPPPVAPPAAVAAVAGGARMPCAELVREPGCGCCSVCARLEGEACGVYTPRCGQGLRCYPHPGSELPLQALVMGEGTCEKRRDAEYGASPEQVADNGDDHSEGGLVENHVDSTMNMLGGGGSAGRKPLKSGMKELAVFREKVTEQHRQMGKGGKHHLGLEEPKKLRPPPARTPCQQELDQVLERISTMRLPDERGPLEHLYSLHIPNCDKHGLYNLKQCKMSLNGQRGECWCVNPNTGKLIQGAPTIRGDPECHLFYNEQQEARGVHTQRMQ
UniProt P38570: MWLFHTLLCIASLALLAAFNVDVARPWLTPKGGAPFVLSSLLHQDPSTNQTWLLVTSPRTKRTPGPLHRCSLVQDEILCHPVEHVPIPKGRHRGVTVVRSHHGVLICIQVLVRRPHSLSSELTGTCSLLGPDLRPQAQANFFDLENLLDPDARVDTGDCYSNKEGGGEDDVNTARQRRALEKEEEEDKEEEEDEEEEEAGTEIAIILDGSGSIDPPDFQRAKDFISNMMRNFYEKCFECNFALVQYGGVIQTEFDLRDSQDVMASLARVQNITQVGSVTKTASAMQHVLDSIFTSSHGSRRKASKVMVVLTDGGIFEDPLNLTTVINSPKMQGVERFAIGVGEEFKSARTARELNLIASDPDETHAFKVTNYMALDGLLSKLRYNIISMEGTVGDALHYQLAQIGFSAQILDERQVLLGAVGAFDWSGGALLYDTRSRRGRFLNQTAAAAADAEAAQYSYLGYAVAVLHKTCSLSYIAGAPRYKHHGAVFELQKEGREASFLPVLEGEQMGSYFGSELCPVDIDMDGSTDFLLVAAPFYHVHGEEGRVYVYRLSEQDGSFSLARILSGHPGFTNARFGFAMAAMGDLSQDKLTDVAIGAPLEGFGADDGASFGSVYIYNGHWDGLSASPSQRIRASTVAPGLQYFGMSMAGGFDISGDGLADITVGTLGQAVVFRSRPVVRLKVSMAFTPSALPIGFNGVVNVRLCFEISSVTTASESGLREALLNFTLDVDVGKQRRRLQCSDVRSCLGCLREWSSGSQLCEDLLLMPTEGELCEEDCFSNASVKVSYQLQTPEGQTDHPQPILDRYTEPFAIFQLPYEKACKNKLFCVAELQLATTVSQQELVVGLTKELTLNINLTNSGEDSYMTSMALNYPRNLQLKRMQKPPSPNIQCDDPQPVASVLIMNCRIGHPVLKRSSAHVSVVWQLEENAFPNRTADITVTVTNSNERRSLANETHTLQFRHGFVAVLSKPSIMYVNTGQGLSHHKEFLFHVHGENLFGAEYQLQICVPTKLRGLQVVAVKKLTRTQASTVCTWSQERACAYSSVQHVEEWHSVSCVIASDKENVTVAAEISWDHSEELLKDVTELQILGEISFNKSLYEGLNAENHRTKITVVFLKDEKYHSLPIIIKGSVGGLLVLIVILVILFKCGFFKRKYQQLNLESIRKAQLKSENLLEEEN
UniProt Q13907: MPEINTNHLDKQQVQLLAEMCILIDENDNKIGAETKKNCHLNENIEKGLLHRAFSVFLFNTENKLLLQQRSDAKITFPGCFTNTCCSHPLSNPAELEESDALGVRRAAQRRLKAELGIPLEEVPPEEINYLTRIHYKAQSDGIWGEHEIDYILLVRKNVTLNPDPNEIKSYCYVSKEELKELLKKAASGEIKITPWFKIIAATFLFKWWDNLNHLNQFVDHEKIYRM

Columns and labels:
Test in all cases: log2 fold change, soluble protein after heating vs DMSO (PISA); higher = thermal stabilisation; K562 cells, 10 uM, 30 min; active = over 0.2 and 3.5 SD of the protein, either way, in both replicates (recomputed)
[1] = compound: CC1=C(C=C(C=C1)NC(=O)C2=CC(=CC=C2)C(C)(C)C#N)NC3=CC4=C(C=C3)N=CN(C4=O)C
Method in brief: (§1)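 Soluble protein was defined as the supernatant after 21,000xg for 90 min. It came from K562 cells at 2×10^6 cells/mL given 10 μM compound for 30 min, heated in aliquots for 3 min across 48°C-58°C, pooled, and extracted in PBS with 0.5% NP-40 at 4°C, and was quantified by TMTpro 16plex LC-MS/MS with equalised channel sums. Thermal stability against control samples, from duplicates, is reported as log2 fold change.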

[2] = compound: CC1=C(C=C(C=C1)NC(=O)C2=CC(=CC=C2)N(C)C)NC(=O)C3=CC=C(C=C3)O
Method in brief: as §1

[3] = compound: CC1=CC=C(C=C1)SC2=C3C=C(SC3=CN=C2)C(=O)N
Method in brief: as §1

[4] = compound: CC1=NC(=CC=C1)C2=C(N=C(N2)C(C)(C)C)C3=CC4=NC=CN=C4C=C3
Method in brief: as §1

Nexturastat A = compound: CCCCN(Cc1ccc(C(=O)NO)cc1)C(=O)Nc1ccccc1 [Nexturastat A]
Method in brief: as §1

vemurafenib = compound: CCCS(=O)(=O)Nc1ccc(F)c(C(=O)c2c[nH]c3ncc(-c4ccc(Cl)cc4)cc23)c1F [vemurafenib]
Method in brief: as §1

[5] = compound: CCCS(=O)(=O)Nc1ccc(F)c(C(=O)c2c[nH]c3ncc(Cl)cc23)c1F
Method in brief: as §1

[6] = compound: CCCc1cc(C)[nH]c(=O)c1CNC(=O)c1cc(-c2ccnc(N3CCN(C)CC3)c2)cc2c1cnn2C(C)C
Method in brief: as §1

givinostat = compound: CCN(CC)Cc1ccc2cc(COC(=O)Nc3ccc(C(=O)NO)cc3)ccc2c1 [givinostat]
Method in brief: as §1

barasertib = compound: CCN(CCCOc1ccc2c(Nc3cc(CC(=O)Nc4cccc(F)c4)[nH]n3)ncnc2c1)CCOP(=O)(O)O [barasertib]
Method in brief: as §1

[7] = compound: CC[C@@H]1C(=O)N(C)c2cnc(Nc3ccc(C(=O)NC4CCN(C)CC4)cc3OC)nc2N1C1CCCC1
Method in brief: as §1

volasertib = compound: CC[C@@H]1C(=O)N(C)c2cnc(Nc3ccc(C(=O)N[C@H]4CC[C@H](N5CCN(CC6CC6)CC5)CC4)cc3OC)nc2N1C(C)C [volasertib]
Method in brief: as §1

[8] = compound: CC[C@H](C)N1C=C(C2=C(C=C(C=C21)C3=CN=C(C=C3)N4CCNCC4)C(=O)NCC5=C(C=C(NC5=O)C)C)C
Method in brief: as §1

epoxomicin = compound: CC[C@H](C)[C@@H](C(=O)N[C@@H]([C@@H](C)O)C(=O)N[C@@H](CC(C)C)C(=O)[C@]1(CO1)C)NC(=O)[C@H]([C@@H](C)CC)N(C)C(=O)C [epoxomicin]
Method in brief: as §1

[9] = compound: CCn1c(C(=O)N(C2CC2)C2CC2)cc2c3c(ncn3C)c(Nc3cc(C)n(C)n3)nc21
Method in brief: as §1

[10] = compound: CCn1cc(-c2ccnc3[nH]c(-c4cccc(CN(C)C)c4)cc23)c(-c2ccc(NC(=O)N(C)C)cc2)n1
Method in brief: as §1

[11] = compound: CN(C)CC(=O)Nc1ccc2[nH]c(=O)c3ccccc3c2c1
Method in brief: as §1

rosiglitazone = compound: CN(CCOC1=CC=C(C=C1)C[C@H]2C(=O)NC(=O)S2)C3=CC=CC=N3 (racemic) [rosiglitazone]
Method in brief: as §1

[12] = compound: CN1C2=C(C3=C1C(=O)N(N=C3)CC4=CC(=CC=C4)N)SC(=C2)S(=O)C
Method in brief: as §1

[13] = compound: CN1CCC(CNc2ccc3ncc(-c4cccc(OC(F)(F)F)c4)n3n2)CC1
Method in brief: as §1

Measured: log2 fold change

ITIH3 (UniProt Q06033)
inactive: [1] -0.124 | [2] 0.335 | [3] 0.004 | [4] 0.163 | Nexturastat A 0.043 | vemurafenib 0.158 | [5] -0.13 | [6] -0.217 | givinostat -0.119 | barasertib 0.003 | [7] 0.037 | volasertib 0.215 | [8] -0.064 | epoxomicin -0.17 | [9] 0.06 | [10] 0.03 | [11] -0.18 | rosiglitazone 0.076 | [12] 0.291 | [13] 0.233

IMPA1 isoform 3 (UniProt P29218)
inactive: [1] -0.029 | [2] 0.011 | [3] 0.009 | [4] -0.002 | Nexturastat A -0.054 | vemurafenib -0.01 | [5] 0.006 | [6] -0.034 | givinostat -0.029 | barasertib -0.006 | [7] 0.051 | volasertib 0.064 | [8] -0.027 | epoxomicin -0.009 | [9] 0.024 | [10] -0.02 | [11] -0.043 | rosiglitazone 0.004 | [12] -0.003 | [13] -0.026

IFT74 (UniProt Q96LB3)
inactive: [1] -0.086 | [2] -0.044 | [3] -0.01 | [4] -0.084 | vemurafenib -0.059 | [5] 0.005 | [6] -0.007 | givinostat 0.26 | barasertib -0.037 | [7] 0.125 | volasertib 0.01 | [8] -0.319 | epoxomicin -0.061 | [10] 0 | [11] -0.051 | [12] 0.025 | [13] -0.05
active: Nexturastat A 0.746

IFRD1 (UniProt O00458)
inactive: [1] 0.123 | [2] 0.033 | [3] 0.098 | [4] -0.04 | Nexturastat A -0.103 | vemurafenib 0.001 | [5] 0.058 | [6] -0.111 | givinostat -0.154 | barasertib -0.079 | [7] 0.107 | volasertib -0.015 | [8] -0.14 | epoxomicin 0.053 | [10] -0.016 | [11] -0.143 | [12] -0.097 | [13] 0.297

ILVBL (UniProt A1L0T0)
inactive: [1] -0.021 | [2] -0.052 | [3] 0.005 | [4] -0.051 | Nexturastat A 0.007 | vemurafenib 0.037 | [5] 0.049 | [6] 0.004 | givinostat -0.002 | barasertib 0.021 | [7] 0.049 | volasertib 0.069 | [8] -0.034 | epoxomicin 0.069 | [10] 0.042 | [11] 0.036 | [12] -0.068 | [13] 0.019

IFNAR1 (UniProt P17181)
inactive: [1] -0.021 | [2] 0.049 | [3] 0.064 | [4] -0.33 | Nexturastat A -0.152 | vemurafenib -0.002 | [5] 0.001 | [6] 0.102 | barasertib -0.185 | volasertib -0.243 | [8] 0.016 | epoxomicin -0.088 | [10] -0.035 | [11] -0.003 | rosiglitazone 0.066 | [12] -0.2 | [13] -0.083

ILK (UniProt Q13418)
inactive: [1] -0.179 | [2] -0.053 | [3] 0.025 | [4] -0.208 | Nexturastat A 0.135 | vemurafenib -0.075 | [5] -0.005 | [6] -0.031 | givinostat 0.041 | barasertib 0.019 | [7] 0.033 | volasertib 0.064 | [8] 0.035 | epoxomicin -0.04 | [10] -0.052 | [11] -0.006 | [12] 0.125 | [13] -0.191

IFRD2 isoform 2 (UniProt Q12894)
inactive: [1] 0.093 | [2] 0.035 | [3] -0.129 | [4] -0.13 | Nexturastat A 0.055 | vemurafenib -0.043 | [5] 0.062 | [6] -0.225 | givinostat -0.2 | barasertib -0.142 | [7] 0.084 | volasertib 0.045 | [8] -0.261 | epoxomicin -0.02 | [10] 0.029 | [11] -0.319 | [12] -0.023 | [13] 0.196

IK (UniProt Q13123)
active: volasertib -0.366
inactive: [1] 0.032 | [2] 0.039 | [3] -0.035 | [4] -0.026 | Nexturastat A 0.093 | vemurafenib 0.086 | [5] -0.002 | [6] 0.036 | givinostat 0.021 | barasertib 0.047 | [7] -0.136 | [8] 0.02 | epoxomicin 0.125 | [10] 0.069 | [11] -0.034 | [12] 0.145 | [13] -0.035

IPO11 isoform 2 (UniProt Q9UI26)
active: volasertib -0.3
inactive: [1] 0.028 | [2] 0.004 | [3] 0.024 | [4] 0.047 | Nexturastat A -0.002 | vemurafenib 0.052 | [5] 0.082 | [6] -0.031 | givinostat -0.031 | barasertib 0.014 | [7] -0.104 | [8] -0.004 | epoxomicin 0.066 | [10] -0.068 | [11] 0.028 | [12] -0.082 | [13] -0.016

ITFG2 (UniProt Q969R8)
inactive: [1] -0.177 | [2] -0.013 | [3] -0.002 | [4] 0.003 | Nexturastat A 0.168 | vemurafenib -0.006 | [5] 0.029 | [6] -0.001 | givinostat -0.138 | barasertib 0.094 | volasertib -0.151 | [8] 0.045 | epoxomicin 0.236 | [9] -0.017 | [11] -0.011 | rosiglitazone -0.198 | [12] -0.158

IFI30 (UniProt P13284)
inactive: [1] -0.043 | [2] 0.043 | [3] 0.018 | [4] -0.046 | Nexturastat A 0.056 | vemurafenib 0.056 | [5] 0.183 | [6] 0.034 | givinostat 0.018 | barasertib 0.028 | [8] 0.038 | epoxomicin -0.014 | [10] -0.098 | [11] -0.021 | [12] -0.06
active: [7] -0.443 | volasertib -0.436 | [13] -0.448

IFITM3 (UniProt Q01628)
active: Nexturastat A -0.425
inactive: [1] -0.058 | [2] 0.074 | [3] 0.148 | [4] -0.059 | vemurafenib 0.177 | [5] 0.2 | [6] 0.218 | givinostat -0.036 | barasertib 0.051 | [7] -0.004 | volasertib 0.033 | [8] 0.023 | epoxomicin -0.007 | [11] 0.175 | [12] -0.015

ITPRIP (UniProt Q8IWB1)
inactive: [1] -0.044 | [2] 0.007 | [3] -0.01 | [4] 0.081 | Nexturastat A 0.005 | vemurafenib 0.02 | [5] 0.061 | [6] -0.099 | givinostat 0.007 | barasertib 0.023 | [7] -0.037 | volasertib -0.148 | [8] -0.012 | epoxomicin -0.019 | [10] 0.031 | [11] 0 | [12] -0.111 | [13] -0.017

IL27RA (UniProt Q6UWB1)
inactive: [1] -0.048 | [2] -0.048 | [3] -0.006 | [4] -0.018 | Nexturastat A 0.027 | vemurafenib -0.025 | [5] -0.091 | [6] -0.008 | givinostat 0.006 | barasertib 0.011 | [7] -0.12 | volasertib -0.298 | [8] -0.049 | epoxomicin -0.178 | [11] -0.098 | [12] -0.219

IGFBP2 (UniProt P18065)
inactive: [1] -0.154 | [2] 0.173 | [3] 0.201 | [4] 0.349 | Nexturastat A 0.106 | vemurafenib 0.262 | [5] -0.003 | [6] -0.409 | givinostat 0.056 | barasertib 0.012 | [7] -0.319 | volasertib -0.614 | [8] -0.167 | epoxomicin -0.707 | [10] 0.158 | [11] 0.003 | [12] 0.323 | [13] -0.638

ITGAE (UniProt P38570)
inactive: [1] -0.377 | [2] 0.007 | [3] -0.128 | [4] -0.362 | Nexturastat A 0.33 | vemurafenib -0.001 | [5] -0.082 | [6] -0.092 | givinostat 0.342 | barasertib 0.009 | volasertib 0.06 | [8] -0.324 | epoxomicin 0.051 | [9] -0.107 | [10] -0.203 | [11] -0.014 | rosiglitazone 0.036 | [13] -0.225

Fetched one by one from the entries so far (2):
IGFBP2 (UniProt P18065)
inactive: [1] -0.154 | [2] 0.173 | [3] 0.201 | [4] 0.349 | Nexturastat A 0.106 | vemurafenib 0.262 | [5] -0.003 | [6] -0.409 | givinostat 0.056 | barasertib 0.012 | [7] -0.319 | volasertib -0.614 | [8] -0.167 | epoxomicin -0.707 | [10] 0.158 | [11] 0.003 | [12] 0.323 | [13] -0.638

IFT74 (UniProt Q96LB3)
inactive: [1] -0.086 | [2] -0.044 | [3] -0.01 | [4] -0.084 | vemurafenib -0.059 | [5] 0.005 | [6] -0.007 | givinostat 0.26 | barasertib -0.037 | [7] 0.125 | volasertib 0.01 | [8] -0.319 | epoxomicin -0.061 | [10] 0 | [11] -0.051 | [12] 0.025 | [13] -0.05
active: Nexturastat A 0.746

Carrying on:

IDI1 isoform 2 (UniProt Q13907)
inactive: [1] -0.017 | [2] -0.007 | [3] -0.015 | [4] 0.003 | Nexturastat A -0.082 | vemurafenib 0.005 | [5] -0.029 | [6] -0.185 | givinostat -0.219 | barasertib 0.024 | [7] 0.055 | volasertib 0.127 | [8] -0.05 | epoxomicin -0.079 | [10] -0.081 | [11] -0.065 | [12] -0.004 | [13] -0.005
